Here are results for 23 targets from the supplement of paper PMC10849652.

Protein sequences, listed by entry. Tags and fused reporters are not part of them. Lines headed by an entry give the natural chain unless they say otherwise; changes in a name come on top.
UniProt O95248: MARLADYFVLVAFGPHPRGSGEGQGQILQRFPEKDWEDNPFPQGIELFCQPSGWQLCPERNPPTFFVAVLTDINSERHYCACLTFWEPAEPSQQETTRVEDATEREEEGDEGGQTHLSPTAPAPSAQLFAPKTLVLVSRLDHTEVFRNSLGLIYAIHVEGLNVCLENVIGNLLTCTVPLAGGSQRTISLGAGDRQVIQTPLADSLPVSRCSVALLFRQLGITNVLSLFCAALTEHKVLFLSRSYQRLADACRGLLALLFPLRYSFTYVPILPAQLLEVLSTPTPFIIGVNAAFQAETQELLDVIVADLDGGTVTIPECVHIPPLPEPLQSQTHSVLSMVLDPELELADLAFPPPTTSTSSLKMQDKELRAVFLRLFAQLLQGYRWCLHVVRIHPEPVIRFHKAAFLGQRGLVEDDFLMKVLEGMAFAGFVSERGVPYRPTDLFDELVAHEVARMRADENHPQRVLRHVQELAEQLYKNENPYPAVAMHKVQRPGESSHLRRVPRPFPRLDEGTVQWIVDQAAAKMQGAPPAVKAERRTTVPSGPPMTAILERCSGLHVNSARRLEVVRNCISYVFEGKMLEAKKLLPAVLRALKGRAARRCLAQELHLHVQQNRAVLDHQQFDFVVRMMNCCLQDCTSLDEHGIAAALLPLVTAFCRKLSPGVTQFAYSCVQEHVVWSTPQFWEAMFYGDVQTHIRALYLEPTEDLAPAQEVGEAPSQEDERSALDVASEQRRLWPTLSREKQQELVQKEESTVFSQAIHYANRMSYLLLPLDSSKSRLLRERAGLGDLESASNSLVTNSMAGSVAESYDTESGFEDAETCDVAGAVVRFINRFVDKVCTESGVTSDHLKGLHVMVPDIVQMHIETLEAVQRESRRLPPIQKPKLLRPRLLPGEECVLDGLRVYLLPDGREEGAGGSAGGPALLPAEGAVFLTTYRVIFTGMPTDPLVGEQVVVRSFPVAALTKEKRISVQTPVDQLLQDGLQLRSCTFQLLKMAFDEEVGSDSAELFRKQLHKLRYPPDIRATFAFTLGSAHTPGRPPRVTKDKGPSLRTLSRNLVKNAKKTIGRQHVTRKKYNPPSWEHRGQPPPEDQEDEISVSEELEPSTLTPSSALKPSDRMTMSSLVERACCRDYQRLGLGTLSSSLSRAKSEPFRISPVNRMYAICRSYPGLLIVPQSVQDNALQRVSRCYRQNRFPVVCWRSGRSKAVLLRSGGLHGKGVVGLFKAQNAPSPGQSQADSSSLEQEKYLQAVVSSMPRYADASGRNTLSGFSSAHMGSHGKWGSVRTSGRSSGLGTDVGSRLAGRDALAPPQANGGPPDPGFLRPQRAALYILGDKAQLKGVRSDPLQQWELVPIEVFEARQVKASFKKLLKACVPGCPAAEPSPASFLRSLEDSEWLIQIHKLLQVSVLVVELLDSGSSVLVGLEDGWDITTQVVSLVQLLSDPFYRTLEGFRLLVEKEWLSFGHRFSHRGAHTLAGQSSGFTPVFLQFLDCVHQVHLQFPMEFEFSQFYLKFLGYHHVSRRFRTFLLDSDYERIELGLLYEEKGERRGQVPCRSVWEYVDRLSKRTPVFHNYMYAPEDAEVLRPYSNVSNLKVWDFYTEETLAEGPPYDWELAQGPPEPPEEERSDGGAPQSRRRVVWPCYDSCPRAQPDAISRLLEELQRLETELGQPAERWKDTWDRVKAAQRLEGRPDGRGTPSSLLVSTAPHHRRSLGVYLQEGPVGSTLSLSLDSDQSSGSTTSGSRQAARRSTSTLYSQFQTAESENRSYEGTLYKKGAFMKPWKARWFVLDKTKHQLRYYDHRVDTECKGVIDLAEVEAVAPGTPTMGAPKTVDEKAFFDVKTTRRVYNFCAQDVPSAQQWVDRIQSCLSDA
UniProt Q9NR31: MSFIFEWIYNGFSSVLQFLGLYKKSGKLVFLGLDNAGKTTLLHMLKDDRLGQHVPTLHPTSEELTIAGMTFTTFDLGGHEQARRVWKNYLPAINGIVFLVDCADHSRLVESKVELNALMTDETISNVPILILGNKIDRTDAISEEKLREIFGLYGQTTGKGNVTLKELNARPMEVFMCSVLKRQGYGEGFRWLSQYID
UniProt P31949: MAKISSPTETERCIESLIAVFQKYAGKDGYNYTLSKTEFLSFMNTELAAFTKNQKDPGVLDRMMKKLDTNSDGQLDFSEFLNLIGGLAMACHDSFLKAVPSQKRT
UniProt Q9Y6B6: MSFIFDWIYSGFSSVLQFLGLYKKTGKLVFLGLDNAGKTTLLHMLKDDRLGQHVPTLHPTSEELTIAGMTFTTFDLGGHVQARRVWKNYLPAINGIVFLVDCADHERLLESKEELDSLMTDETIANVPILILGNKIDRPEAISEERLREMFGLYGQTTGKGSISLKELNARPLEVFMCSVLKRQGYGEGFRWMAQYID
UniProt Q8WU76: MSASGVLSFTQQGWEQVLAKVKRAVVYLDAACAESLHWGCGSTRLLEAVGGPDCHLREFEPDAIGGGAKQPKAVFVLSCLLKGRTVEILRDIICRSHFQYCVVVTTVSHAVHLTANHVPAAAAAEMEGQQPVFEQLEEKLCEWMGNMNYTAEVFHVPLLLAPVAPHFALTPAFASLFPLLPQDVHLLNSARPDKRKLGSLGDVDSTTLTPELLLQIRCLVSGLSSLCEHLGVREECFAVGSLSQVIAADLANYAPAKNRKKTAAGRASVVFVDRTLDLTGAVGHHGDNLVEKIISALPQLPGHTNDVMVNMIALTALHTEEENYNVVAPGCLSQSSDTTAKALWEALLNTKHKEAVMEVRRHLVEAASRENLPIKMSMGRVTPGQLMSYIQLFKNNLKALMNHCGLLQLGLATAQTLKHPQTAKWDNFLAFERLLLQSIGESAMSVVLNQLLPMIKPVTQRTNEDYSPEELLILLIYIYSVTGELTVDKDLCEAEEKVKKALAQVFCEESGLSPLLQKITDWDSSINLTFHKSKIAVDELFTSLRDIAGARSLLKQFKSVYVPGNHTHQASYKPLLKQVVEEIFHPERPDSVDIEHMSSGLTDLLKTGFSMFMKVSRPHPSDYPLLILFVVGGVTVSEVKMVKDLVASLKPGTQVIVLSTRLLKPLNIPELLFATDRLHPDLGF
UniProt Q9H446: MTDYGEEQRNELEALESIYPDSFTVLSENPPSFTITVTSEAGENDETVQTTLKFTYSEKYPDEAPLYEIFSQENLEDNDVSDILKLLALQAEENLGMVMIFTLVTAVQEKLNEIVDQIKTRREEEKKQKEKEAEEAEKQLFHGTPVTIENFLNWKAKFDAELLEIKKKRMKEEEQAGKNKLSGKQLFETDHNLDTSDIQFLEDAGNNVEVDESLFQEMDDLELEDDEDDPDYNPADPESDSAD
UniProt Q9Y6U3: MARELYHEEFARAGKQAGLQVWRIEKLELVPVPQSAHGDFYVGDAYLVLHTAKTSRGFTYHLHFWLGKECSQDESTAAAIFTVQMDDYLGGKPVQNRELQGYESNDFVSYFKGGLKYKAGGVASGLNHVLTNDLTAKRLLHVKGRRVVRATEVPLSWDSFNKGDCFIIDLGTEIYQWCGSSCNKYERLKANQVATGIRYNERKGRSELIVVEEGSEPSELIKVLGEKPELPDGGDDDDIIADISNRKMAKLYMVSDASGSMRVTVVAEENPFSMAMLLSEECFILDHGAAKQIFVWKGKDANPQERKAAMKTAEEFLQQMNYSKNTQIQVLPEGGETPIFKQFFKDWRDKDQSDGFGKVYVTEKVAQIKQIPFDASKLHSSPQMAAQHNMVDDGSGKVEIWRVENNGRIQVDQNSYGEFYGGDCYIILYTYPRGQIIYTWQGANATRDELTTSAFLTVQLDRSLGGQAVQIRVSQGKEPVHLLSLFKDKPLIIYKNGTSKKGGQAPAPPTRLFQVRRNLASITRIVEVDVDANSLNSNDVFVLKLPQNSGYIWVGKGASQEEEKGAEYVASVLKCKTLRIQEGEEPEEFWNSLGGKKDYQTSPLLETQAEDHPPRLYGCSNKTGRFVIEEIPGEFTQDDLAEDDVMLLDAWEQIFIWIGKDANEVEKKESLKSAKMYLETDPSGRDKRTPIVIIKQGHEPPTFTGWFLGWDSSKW
UniProt Q9BRK5: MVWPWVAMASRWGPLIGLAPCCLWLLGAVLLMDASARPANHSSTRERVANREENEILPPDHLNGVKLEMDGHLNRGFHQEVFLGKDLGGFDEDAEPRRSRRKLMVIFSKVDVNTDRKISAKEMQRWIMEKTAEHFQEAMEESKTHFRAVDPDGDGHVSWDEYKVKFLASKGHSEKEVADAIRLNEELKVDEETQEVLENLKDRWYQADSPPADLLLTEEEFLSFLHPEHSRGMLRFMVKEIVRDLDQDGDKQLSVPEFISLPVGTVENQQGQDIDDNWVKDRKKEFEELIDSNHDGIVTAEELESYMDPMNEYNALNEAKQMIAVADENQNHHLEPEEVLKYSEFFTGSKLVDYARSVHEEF
UniProt Q9Y224: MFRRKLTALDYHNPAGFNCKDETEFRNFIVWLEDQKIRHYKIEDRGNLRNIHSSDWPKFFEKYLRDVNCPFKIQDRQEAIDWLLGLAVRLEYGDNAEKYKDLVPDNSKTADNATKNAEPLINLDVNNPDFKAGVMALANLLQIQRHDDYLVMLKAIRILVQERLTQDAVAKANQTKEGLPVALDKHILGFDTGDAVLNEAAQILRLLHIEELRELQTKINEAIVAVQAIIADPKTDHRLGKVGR
UniProt Q9Y265, whole entry, looked up: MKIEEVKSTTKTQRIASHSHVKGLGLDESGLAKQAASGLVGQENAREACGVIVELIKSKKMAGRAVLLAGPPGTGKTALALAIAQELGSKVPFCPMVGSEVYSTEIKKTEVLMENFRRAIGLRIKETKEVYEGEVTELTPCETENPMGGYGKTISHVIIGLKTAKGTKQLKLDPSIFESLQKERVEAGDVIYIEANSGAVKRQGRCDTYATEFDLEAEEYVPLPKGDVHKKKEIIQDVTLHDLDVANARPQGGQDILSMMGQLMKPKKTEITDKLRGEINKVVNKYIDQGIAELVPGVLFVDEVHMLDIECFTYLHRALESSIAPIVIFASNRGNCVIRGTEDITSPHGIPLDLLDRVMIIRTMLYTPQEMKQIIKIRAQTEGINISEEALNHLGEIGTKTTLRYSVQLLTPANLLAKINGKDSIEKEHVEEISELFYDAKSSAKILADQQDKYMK
UniProt Q9NRP4: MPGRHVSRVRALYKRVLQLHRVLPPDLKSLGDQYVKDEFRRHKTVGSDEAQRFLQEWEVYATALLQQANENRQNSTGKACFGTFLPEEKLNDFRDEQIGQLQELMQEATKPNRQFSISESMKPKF
UniProt A3KN83: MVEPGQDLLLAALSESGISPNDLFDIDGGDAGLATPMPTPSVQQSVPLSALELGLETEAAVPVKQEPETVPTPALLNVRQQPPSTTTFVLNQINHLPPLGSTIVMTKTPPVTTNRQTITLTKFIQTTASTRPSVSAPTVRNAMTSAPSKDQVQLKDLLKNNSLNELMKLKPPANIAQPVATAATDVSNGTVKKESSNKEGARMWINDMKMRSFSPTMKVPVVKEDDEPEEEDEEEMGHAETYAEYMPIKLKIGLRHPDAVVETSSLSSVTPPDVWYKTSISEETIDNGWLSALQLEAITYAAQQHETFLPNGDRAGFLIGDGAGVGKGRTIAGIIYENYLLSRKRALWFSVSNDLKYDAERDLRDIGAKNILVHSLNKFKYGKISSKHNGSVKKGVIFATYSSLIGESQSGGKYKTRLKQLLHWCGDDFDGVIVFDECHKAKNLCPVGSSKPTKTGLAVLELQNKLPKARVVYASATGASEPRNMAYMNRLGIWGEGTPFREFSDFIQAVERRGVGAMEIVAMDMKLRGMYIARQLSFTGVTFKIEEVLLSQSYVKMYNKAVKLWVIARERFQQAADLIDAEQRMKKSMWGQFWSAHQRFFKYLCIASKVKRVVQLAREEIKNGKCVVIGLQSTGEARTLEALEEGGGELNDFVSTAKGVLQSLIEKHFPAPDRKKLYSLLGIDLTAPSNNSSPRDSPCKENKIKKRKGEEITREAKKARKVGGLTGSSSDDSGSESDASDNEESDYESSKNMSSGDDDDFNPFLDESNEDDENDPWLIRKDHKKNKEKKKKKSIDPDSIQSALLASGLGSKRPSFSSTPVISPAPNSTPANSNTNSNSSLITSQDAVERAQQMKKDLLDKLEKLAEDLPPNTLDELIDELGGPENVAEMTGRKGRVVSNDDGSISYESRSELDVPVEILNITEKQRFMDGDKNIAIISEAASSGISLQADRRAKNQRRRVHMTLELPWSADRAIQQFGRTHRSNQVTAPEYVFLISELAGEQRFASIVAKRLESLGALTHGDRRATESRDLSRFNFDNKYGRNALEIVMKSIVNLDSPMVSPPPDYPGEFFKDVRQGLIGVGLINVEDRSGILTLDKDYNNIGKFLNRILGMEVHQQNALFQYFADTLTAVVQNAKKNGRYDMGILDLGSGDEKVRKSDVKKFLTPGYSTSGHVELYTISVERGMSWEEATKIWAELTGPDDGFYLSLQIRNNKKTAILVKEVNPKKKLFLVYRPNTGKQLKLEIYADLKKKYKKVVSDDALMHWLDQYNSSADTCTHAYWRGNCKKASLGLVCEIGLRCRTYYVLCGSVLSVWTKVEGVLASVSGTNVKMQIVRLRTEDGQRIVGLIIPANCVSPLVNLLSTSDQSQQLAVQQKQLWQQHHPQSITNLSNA

The other results are listed elsewhere or left out.

Compound in one experiment: Cc1cc(SCc2sc(-c3ccc(C(F)(F)F)cc3)nc2C)ccc1OCC(=O)O
The experiment in a line: log2 fold change, soluble protein after heating vs DMSO (PISA); higher = thermal stabilisation; K562 cells, 10 uM, 30 min; active = over 0.2 and 3.5 SD of the protein, either way, in both replicates (recomputed). In a few lines: (§1)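 K562 cells at 2×10^6 cells/mL were treated with 10 μM compound for 30 min. Aliquots were heated for 3 min across 48°C-58°C, pooled, and extracted in PBS with 0.5% NP-40 at 4°C; soluble protein was the supernatant after 21,000xg for 90 min. Soluble protein was quantified by TMTpro 16plex LC-MS/MS with channel sums equalised, and reported as log2 fold change in thermal stability against DMSO controls, with values from duplicates.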
In the case of RRP15 (UniProt Q9Y3B9), the log2 fold change is inactive: -0.039.
On the same count and under the same terms, next, SBF1 isoform 4 (UniProt O95248): inactive: 0.083; SARG (UniProt Q9BW04): inactive: -0.027; SAR1A (UniProt Q9NR31): inactive: -0.022.
Same read-out and setting: next, S100A11 (UniProt P31949): inactive: 0.002; SAP30BP (UniProt Q9UHR5): inactive: -0.082.
Still for that read-out and setting: next, SAR1B (UniProt Q9Y6B6): inactive: 0.027.

Compound in a further experiment: Cc1ccc(-n2nc(C(C)(C)C)cc2NC(=O)Nc2ccc(OCCN3CCOCC3)c3ccccc23)cc1 [doramapimod]
The experiment is described as above. In a few lines: as §1
For SCFD2 (UniProt Q8WU76), the log2 fold change is inactive: -0.005.
Regarding SCARB1 isoform 2 (UniProt Q8WTV0), the log2 fold change was inactive: -0.035.
On to RWDD1 (UniProt Q9H446), for which the log2 fold change is inactive: -0.005.
Same read-out and setting: next, SCIN (UniProt Q9Y6U3): inactive: 0.002.
Same read-out and setting: next, SDF4 (UniProt Q9BRK5): inactive: 0.006; RYBP (UniProt Q8N488): inactive: -0.076.
On the same count and under the same terms, next, SCO1 (UniProt O75880): inactive: 0.009.
Turning to SACS (UniProt Q9NZJ4), the log2 fold change was inactive: 0.011.
Still for that read-out and setting: next, RTRAF (UniProt Q9Y224): inactive: 0.106.
SCYL1 (UniProt Q96KG9): the log2 fold change was inactive: -0.006.
With S100A6 (UniProt P06703), the log2 fold change is inactive: 0.152.
As to SDHA (UniProt P31040), the log2 fold change was inactive: -0.065.
On to RSBN1L (UniProt Q6PCB5), for which the log2 fold change was inactive: 0.149.
As for RUVBL1 (UniProt Q9Y265), the log2 fold change was inactive: -0.002.
As for SDHAF3 (UniProt Q9NRP4), the log2 fold change is inactive: -0.019.
On the same count and under the same terms, next, SBNO1 (UniProt A3KN83): inactive: -0.046.
